Results are given in words; binding and its absence hold for the method and conditions named. In cells and extracts the contact can be indirect. These calls come from enrichment with a bait or labelling near it, and not all partners need be listed.
B1: ATF7 (protein, UniProt P17544 1-483)
chain: MGDDRPFVCNAPGCGQRFTNEDHLAVHKHKHEMTLKFGPARTDSVIIADQTPTPTRFLKNCEEVGLFNELASSFEHEFKKAADEDEKKAAAGPLDMSLPSTPDIKIKEEEPVEVDSSPPDSPASSPCSPPLKEKEVTPKPVLISTPTPTIVRPGSLPLHLGYDPLHPTLPSPTSVITQAPPSNRQMGSPTGSLPLVMHLANGQTMPVLPGPPVQMPSVISLARPVSMVPNIPGIPGPPVNSSGSISPSGHPIPSEAKMRLKATLTHQVSSINGGCGMVVGTASTMVTARPEQSQILIQHPDAPSPAQPQVSPAQPTPSTGGRRRRTVDEDPDERRQRFLERNRAAASRCRQKRKLWVSSLEKKAEELTSQNIQLSNEVTLLRNEVAQLKQLLLAHKDCPVTALQKKTQGYLESPKESSEPTGSPAPVIQHSSATAPSNGLSVRSAAEAVATSVLTQMASQRTELSMPIQSHVIMTPQSQSAGR
B2: N4BP3 (protein, UniProt O15049 1-544)
chain: MATAPGPAGIAMGSVGSLLERQDFSPEELRAALAGSRGSRQPDGLLRKGLGQREFLSYLHLPKKDSKSTKNTKRAPRNEPADYATLYYREHSRAGDFSKTSLPERGRFDKCRIRPSVFKPTAGNGKGFLSMQSLASHKGQKLWRSNGSLHTLACHPPLSPGPRASQARAQLLHALSLDEGGPEPEPSLSDSSSGGSFGRSPGTGPSPFSSSLGHLNHLGGSLDRASQGPKEAGPPAVLSCLPEPPPPYEFSCSSAEEMGAVLPETCEELKRGLGDEDGSNPFTQVLEERQRLWLAELKRLYVERLHEVTQKAERSERNLQLQLFMAQQEQRRLRKELRAQQGLAPEPRAPGTLPEADPSARPEEEARWEVCQKTAEISLLKQQLREAQAELAQKLAEIFSLKTQLRGSRAQAQAQDAELVRLREAVRSLQEQAPREEAPGSCETDDCKSRGLLGEAGGSEARDSAEQLRAELLQERLRGQEQALRFEQERRTWQEEKERVLRYQREIQGGYMDMYRRNQALEQELRALREPPTPWSPRLESSKI
B3: IRF1 (protein, UniProt P10914 1-325)
chain: MPITRMRMRPWLEMQINSNQIPGLIWINKEEMIFQIPWKHAAKHGWDINKDACLFRSWAIHTGRYKAGEKEPDPKTWKANFRCAMNSLPDIEEVKDQSRNKGSSAVRVYRMLPPLTKNQRKERKSKSSRDAKSKAKRKSCGDSSPDTFSDGLSSSTLPDDHSSYTVPGYMQDLEVEQALTPALSPCAVSSTLPDWHIPVEVVPDSTSDLYNFQVSPMPSTSEATTDEDEEGKLPEDIMKLLEQSEWQPTNVDGKGYLLNEPGVQPTSVYGDFSCKEEPEIDSPGGDIGLSLQRVFTDLKNMDATWLDSLLTPVRLPSIQAIPCAP
B4: FOSL1 (protein, UniProt P15407 1-271)
chain: MFRDFGEPGPSSGNGGGYGGPAQPPAAAQAAQQKFHLVPSINTMSGSQELQWMVQPHFLGPSSYPRPLTYPQYSPPQPRPGVIRALGPPPGVRRRPCEQISPEEEERRRVRRERNKLAAAKCRNRRKELTDFLQAETDKLEDEKSGLQREIEELQKQKERLELVLEAHRPICKIPEGAKEGDTGSTSGTSSPPAPCRPVPCISLSPGPVLEPEALHTPTLMTTPSLTPFTPSLVFTYPSTPEPCASAHRKSSSSSGDPSSDPLGSPTLLAL
B5: CEBPD (protein, UniProt P49716 1-269)
chain: MSAALFSLDGPARGAPWPAEPAPFYEPGRAGKPGRGAEPGALGEPGAAAPAMYDDESAIDFSAYIDSMAAVPTLELCHDELFADLFNSNHKAGGAGPLELLPGGPARPLGPGPAAPRLLKREPDWGDGDAPGSLLPAQVAACAQTVVSLAAAGQPTPPTSPEPPRSSPRQTPAPGPAREKSAGKRGPDRGSPEYRQRRERNNIAVRKSRDKAKRRNQEMQQKLVELSAENEKLHQRVEQLTRDLAGLRQFFKQLPSPPFLPAAGTADCR

Chains of the proteins cited; added tags and fusions are not shown.
UniProt Q04206: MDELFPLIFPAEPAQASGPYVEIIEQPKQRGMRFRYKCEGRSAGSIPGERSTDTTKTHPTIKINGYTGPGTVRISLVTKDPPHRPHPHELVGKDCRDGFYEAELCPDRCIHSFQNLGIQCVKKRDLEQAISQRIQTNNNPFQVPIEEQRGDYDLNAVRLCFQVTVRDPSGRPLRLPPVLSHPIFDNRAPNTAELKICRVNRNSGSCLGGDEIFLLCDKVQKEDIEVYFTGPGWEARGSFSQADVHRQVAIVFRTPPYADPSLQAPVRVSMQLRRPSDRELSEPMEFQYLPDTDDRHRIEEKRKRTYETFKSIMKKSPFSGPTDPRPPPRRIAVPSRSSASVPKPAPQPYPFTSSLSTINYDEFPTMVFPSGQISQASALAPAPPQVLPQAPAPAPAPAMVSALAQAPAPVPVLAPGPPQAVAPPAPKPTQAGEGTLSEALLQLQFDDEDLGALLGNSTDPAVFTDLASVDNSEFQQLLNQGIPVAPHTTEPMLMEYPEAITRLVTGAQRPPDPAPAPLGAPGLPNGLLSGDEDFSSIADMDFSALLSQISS

Target: p65(wt)-HA-miniTurbo (human) (UniProt Q04206)
Assay: proximity labelling

Binder	binding
B1	binds
B2	binds
B3	binds
B4	binds
B5	binds

Source: publication doi:10.1101/2024.01.03.574021
